No constants are given. Whether binding was seen depends on the method and setting. Binding seen in cells or lysates may run through a third protein. Here binding means that the protein was enriched with, or labelled near, the bait; the list need not be complete.
B1: IRF4 transcription factor (protein, UniProt Q15306 1-451)
chain: MNLEGGGRGGEFGMSAVSCGNGKLRQWLIDQIDSGKYPGLVWENEEKSIFRIPWKHAGKQDYNREEDAALFKAWALFKGKFREGIDKPDPPTWKTRLRCALNKSNDFEELVERSQLDISDPYKVYRIVPEGAKKGAKQLTLEDPQMSMSHPYTMTTPYPSLPAQQVHNYMMPPLDRSWRDYVPDQPHPEIPYQCPMTFGPRGHHWQGPACENGCQVTGTFYACAPPESQAPGVPTEPSIRSAEALAFSDCRLHICLYYREILVKELTTSSPEGCRISHGHTYDASNLDQVLFPYPEDNGQRKNIEKLLSHLERGVVLWMAPDGLYAKRLCQSRIYWDGPLALCNDRPNKLERDQTCKLFDTQQFLSELQAFAHHGRSLPRFQVTLCFGEEFPDPQRQRKLITAHVEPLLARQLYYFAQQNSGHFLRGYDLPEHISNPEDYHRSIRHSSIQE

Protein sequences, listed by entry. Tags and fused reporters are not part of them.
UniProt Q9UKT9: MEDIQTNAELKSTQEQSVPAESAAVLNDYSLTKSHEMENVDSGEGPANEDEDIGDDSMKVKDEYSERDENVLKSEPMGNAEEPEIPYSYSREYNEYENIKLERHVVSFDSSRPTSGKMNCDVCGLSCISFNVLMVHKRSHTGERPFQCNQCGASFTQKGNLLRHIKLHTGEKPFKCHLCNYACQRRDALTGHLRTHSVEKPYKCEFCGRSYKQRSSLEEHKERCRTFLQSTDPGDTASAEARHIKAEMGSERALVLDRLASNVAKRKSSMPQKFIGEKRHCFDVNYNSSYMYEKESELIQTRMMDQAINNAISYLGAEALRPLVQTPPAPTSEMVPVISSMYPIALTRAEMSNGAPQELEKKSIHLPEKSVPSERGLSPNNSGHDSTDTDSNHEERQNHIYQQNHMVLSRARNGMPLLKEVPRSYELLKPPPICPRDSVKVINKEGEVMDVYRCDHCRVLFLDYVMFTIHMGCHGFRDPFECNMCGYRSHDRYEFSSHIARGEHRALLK

biological target: glucocorticoid receptor (human (endogenous in MM.1S)) (UniProt P04150); assay: affinity purification with mass spectrometry; RIME (rapid immunoprecipitation mass spectrometry of endogenous protein) by Active Motif; MM.1S cells exposed to Dex 0.1 uM for 1 h and fixed; GR (H-300) antibody, GR as bait; proteins found in the IgG negative control and with spectral count < …; proteins identified in both replicates

binding, binds:
IKZF3 (from UniProt Q9UKT9 1-509)
IKZF1 (from UniProt Q13422 1-519)
B1
